No constants are given. Whether binding was seen depends on the method and setting. For part of these data: Binding seen in cells or lysates may run through a third protein. Some entries that bind do so weakly or less than the wild type. Tags and fused reporters may be left off the sequences shown. One block for each molecule: values may come before it.
How the values were obtained:
ICA512-CCF-GFP (human) = biological target: T1, ICA512-CCF-GFP (human) (UniProt Q16849); experiment: anti-GFP immunoprecipitation from total extracts of hGH-stimulated INS-1 cells, immunoblot (FIG. 24f)
T1 sequence: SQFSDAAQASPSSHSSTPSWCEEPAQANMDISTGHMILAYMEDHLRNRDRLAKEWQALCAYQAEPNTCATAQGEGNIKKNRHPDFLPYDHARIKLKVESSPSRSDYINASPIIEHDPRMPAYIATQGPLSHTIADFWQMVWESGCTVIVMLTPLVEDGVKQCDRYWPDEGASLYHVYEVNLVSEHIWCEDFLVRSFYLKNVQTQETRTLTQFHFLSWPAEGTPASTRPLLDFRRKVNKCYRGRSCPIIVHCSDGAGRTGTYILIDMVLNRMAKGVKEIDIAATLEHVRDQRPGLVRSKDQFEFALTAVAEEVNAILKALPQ

By UniProt entry, the sequences of proteins in these tests, tags left out.
UniProt P52632: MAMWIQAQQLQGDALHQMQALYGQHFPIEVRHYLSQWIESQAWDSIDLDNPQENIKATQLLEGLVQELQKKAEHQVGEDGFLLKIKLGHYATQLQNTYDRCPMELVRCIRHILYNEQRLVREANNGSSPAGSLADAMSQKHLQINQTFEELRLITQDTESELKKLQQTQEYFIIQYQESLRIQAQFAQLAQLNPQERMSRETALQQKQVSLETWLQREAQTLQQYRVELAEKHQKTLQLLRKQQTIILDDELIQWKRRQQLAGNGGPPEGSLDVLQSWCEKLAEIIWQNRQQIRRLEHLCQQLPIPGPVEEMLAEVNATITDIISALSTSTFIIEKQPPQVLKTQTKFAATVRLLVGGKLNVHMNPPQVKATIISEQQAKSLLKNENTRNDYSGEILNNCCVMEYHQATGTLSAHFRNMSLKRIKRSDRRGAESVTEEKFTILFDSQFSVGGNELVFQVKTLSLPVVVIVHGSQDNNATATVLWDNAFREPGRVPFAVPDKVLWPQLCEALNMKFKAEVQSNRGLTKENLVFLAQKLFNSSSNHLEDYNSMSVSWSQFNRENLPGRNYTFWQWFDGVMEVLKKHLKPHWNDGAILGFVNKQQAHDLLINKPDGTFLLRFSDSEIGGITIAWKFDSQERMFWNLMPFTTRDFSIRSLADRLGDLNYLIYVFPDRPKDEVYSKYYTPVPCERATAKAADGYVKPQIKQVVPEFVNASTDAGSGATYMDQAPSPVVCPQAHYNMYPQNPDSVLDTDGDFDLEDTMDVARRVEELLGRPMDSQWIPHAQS

PY-STAT5 (rat) = PY-STAT5 (rat) (UniProt P52632); experiment: heading of the legend of FIG. 24 (co-immunoprecipitation)
[1] = biological target: T2, GST-ICA512 (700-979) (human) (UniProt Q16849); experiment: GST pull-down, SDS-PAGE and autoradiography (FIG. 26a)
T2 sequence: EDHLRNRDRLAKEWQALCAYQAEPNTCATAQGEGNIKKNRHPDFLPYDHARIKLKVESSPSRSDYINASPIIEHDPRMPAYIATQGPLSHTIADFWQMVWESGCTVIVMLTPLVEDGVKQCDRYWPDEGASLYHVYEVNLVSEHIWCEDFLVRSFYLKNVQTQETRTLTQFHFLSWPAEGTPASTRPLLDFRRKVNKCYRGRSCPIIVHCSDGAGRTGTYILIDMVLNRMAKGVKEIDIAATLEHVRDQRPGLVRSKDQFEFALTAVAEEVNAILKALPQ

- binding (ICA512-CCF-GFP (human)): binds
Molecule: PY-STAT5 (from UniProt P52632 1-786)

- binding (PY-STAT5 (rat)): binds
B1: ICA512-CCF-GFP (other, not shown: large carriers)
chain: SQFSDAAQASPSSHSSTPSWCEEPAQANMDISTGHMILAYMEDHLRNRDRLAKEWQALCAYQAEPNTCATAQGEGNIKKNRHPDFLPYDHARIKLKVESSPSRSDYINASPIIEHDPRMPAYIATQGPLSHTIADFWQMVWESGCTVIVMLTPLVEDGVKQCDRYWPDEGASLYHVYEVNLVSEHIWCEDFLVRSFYLKNVQTQETRTLTQFHFLSWPAEGTPASTRPLLDFRRKVNKCYRGRSCPIIVHCSDGAGRTGTYILIDMVLNRMAKGVKEIDIAATLEHVRDQRPGLVRSKDQFEFALTAVAEEVNAILKALPQ

- binding [1]: binds
B2: in-vitro transcribed and translated [^35S]-labeled PIASy (protein, mouse, UniProt Q9JM05 1-507, looked up)
chain: MAAELVEAKNMVMSFRVSDLQMLLGFVGRSKSGLKHELVTRALQLVQFDCSPELFKKIKELYETRYAKKSAEPGPQAPRPLDPLALHSMPRTPLSGPTVDYPVLYGKYLNGLGRLPTKTLKPEVRLVKLPFFNMLDELLKPTELVPQSAEKLQESPCIFALTPRQVEMIRNSRELQPGVKAVQVVLRICYSDTSCPQEDQYPPNIAVKVNHSYCSVPGYYPSNKPGVEPKRPCRPINLTHLMYLSSATNRITVTWGNYGKSYSVALYLVRQLTSSDLLQRLKTIGVKHPELCKALVKEKLRLDPDSEIATTGVRVSLICPLVKMRLSVPCRAETCAHLQCFDAVFYLQMNEKKPTWMCPVCDKPAAYDQLIIDGLLSKILSECEGADEIEFLAEGSWRPIRAEKEPSCSPQGPILVLGTSDANGLAPASSTPGIGSGLSGPGSAGSGAGAAGSLENGKTGADVVDLTLDSSSSSEDEDEDEDDDEDEDEGPRPKRRCPFQKGLVPAC
modifications: [35S]-methionine label

Source: patent publication US20090131309A1, “ICA512 COUPLES INSULIN SECRETION AND GENE EXPRESSION IN BETA-CELLS” (Technische Universität Dresden Medizinizche Fakultät Carl …, priority 2004, published 2009)
